Results are given in words; binding and its absence hold for the method and conditions named. Binding seen in cells or lysates may run through a third protein. Binding calls can cover weak binding; strength is not graded here.
Biological target: AMPA-type glutamate receptor subunit GluA2 (mouse (endogenous in primary hippocampal neurons)) (UniProt P23819)
Assay: proximity ligation; Duolink in situ PLA on fixed, permeabilized primary hippocampal mouse neurons (transfected at DIV 7, assayed at DIV 14); goat anti-EphB2 and mouse anti-GluA2; signal only when the antigens are in close proximity (<40 nm); quantified in cell bodies of GFP-positive neurons; some cultures treated with Aβ oligomers (2 μM, 24 h) or TTX (1 μM, 6 h)

Chains of the proteins cited; added tags and fusions are not shown. Residues count along the entry.
UniProt P23819, residues 25-883: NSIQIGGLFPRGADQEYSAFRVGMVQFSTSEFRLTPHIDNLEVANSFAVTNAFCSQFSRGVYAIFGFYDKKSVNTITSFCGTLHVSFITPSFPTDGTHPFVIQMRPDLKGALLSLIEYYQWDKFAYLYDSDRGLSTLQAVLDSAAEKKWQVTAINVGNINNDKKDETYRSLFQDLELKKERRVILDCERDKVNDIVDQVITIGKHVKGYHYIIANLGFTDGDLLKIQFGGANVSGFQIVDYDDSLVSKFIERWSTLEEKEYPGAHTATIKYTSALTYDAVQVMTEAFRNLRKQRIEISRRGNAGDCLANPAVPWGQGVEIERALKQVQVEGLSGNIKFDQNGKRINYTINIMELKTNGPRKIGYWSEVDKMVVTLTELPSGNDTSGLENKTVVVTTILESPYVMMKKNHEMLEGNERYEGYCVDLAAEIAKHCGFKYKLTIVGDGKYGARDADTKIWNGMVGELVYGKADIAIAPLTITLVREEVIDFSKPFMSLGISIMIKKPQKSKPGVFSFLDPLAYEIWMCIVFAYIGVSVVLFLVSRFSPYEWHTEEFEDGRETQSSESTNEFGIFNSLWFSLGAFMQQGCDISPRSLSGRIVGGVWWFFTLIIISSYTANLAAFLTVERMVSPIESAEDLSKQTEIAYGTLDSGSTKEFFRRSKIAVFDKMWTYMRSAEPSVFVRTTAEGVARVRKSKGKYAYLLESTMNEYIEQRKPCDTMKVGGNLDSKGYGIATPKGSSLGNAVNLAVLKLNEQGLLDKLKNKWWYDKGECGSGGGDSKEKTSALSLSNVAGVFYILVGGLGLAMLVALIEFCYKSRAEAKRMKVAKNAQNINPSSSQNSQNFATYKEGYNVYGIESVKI

binding: binds
Substance: FLAG-tagged EphB2 lacking the PDZ-binding motif (EphB2^ΔPDZ) (from UniProt P54763) (receptor)
